Further values from the same series stand in other lists.
Experiments:
Type in all cases: cell-based
Conditions in all cases: U-87MG ATCC
[1] = Inhibition of RTK/PI3K/AKT/mTOR signaling in human U87 cells assessed as down regulation of HIPK1 gene expression at cytotoxic IC50 measured after 48 hrs relative to control
[2] = Inhibition of RTK/PI3K/AKT/mTOR signaling in human U87 cells assessed as up regulation of ANXA1 gene expression at cytotoxic IC50 measured after 48 hrs relative to control
[3] = Inhibition of RTK/PI3K/AKT/mTOR signaling in human U87 cells assessed as down regulation of LIG4 gene expression at cytotoxic IC50 measured after 48 hrs relative to control
[4] = Inhibition of RTK/PI3K/AKT/mTOR signaling in human U87 cells assessed as down regulation of SMTN gene expression at cytotoxic IC50 measured after 48 hrs relative to control
[5] = Inhibition of RTK/PI3K/AKT/mTOR signaling in human U87 cells assessed as down regulation of CPT1A gene expression at cytotoxic IC50 measured after 48 hrs relative to control
[6] = Inhibition of RTK/PI3K/AKT/mTOR signaling in human U87 cells assessed as up regulation of Rho guanine nucleotide exchange factor 19 gene expression at cytotoxic IC50 measured after 48 hrs relative to control
[7] = Inhibition of RTK/PI3K/AKT/mTOR signaling in human U87 cells assessed as down regulation of CHERP gene expression at cytotoxic IC50 measured after 48 hrs relative to control
[8] = Inhibition of RTK/PI3K/AKT/mTOR signaling in human U87 cells assessed as up regulation of B3GALT5 gene expression at cytotoxic IC50 measured after 48 hrs relative to control
[9] = Inhibition of RTK/PI3K/AKT/mTOR signaling in human U87 cells assessed as up regulation of ENO2 gene expression at cytotoxic IC50 measured after 48 hrs relative to control
[10] = Inhibition of RTK/PI3K/AKT/mTOR signaling in human U87 cells assessed as up regulation of TPT1 gene expression at cytotoxic IC50 measured after 48 hrs relative to control
[11] = Inhibition of RTK/PI3K/AKT/mTOR signaling in human U87 cells assessed as up regulation of dysbindin domain containing 1 gene expression at cytotoxic IC50 measured after 48 hrs relative to control
[12] = Inhibition of RTK/PI3K/AKT/mTOR signaling in human U87 cells assessed as down regulation of HSPA6 gene expression at cytotoxic IC50 measured after 48 hrs relative to control
[13] = Inhibition of RTK/PI3K/AKT/mTOR signaling in human U87 cells assessed as up regulation of serine/threonine kinase 39 gene expression at cytotoxic IC50 measured after 48 hrs relative to control
[14] = Inhibition of RTK/PI3K/AKT/mTOR signaling in human U87 cells assessed as up regulation of CKLF like MARVEL transmembrane domain containing 7 gene expression at cytotoxic IC50 measured after 48 hrs relative to control
[15] = Inhibition of RTK/PI3K/AKT/mTOR signaling in human U87 cells assessed as up regulation of RNF220 gene expression at cytotoxic IC50 measured after 48 hrs relative to control
[16] = Inhibition of RTK/PI3K/AKT/mTOR signaling in human U87 cells assessed as up regulation of ANXA11 gene expression at cytotoxic IC50 measured after 48 hrs relative to control
[17] = Inhibition of RTK/PI3K/AKT/mTOR signaling in human U87 cells assessed as up regulation of MMS19 homolog, cytosolic iron-sulfur assembly component gene expression at cytotoxic IC50 measured after 48 hrs relative to control
[18] = Inhibition of RTK/PI3K/AKT/mTOR signaling in human U87 cells assessed as up regulation of septin 2 gene expression at cytotoxic IC50 measured after 48 hrs relative to control
[19] = Inhibition of RTK/PI3K/AKT/mTOR signaling in human U87 cells assessed as down regulation of PPP1CA gene expression at cytotoxic IC50 measured after 48 hrs relative to control
[20] = Inhibition of RTK/PI3K/AKT/mTOR signaling in human U87 cells assessed as down regulation of GAN gene expression at cytotoxic IC50 measured after 48 hrs relative to control
[21] = Inhibition of RTK/PI3K/AKT/mTOR signaling in human U87 cells assessed as up regulation of SMARCC1 gene expression at cytotoxic IC50 measured after 48 hrs relative to control
[22] = Inhibition of RTK/PI3K/AKT/mTOR signaling in human U87 cells assessed as down regulation of TPM1 gene expression at cytotoxic IC50 measured after 48 hrs relative to control
[23] = Inhibition of RTK/PI3K/AKT/mTOR signaling in human U87 cells assessed as down regulation of LATS1 gene expression at cytotoxic IC50 measured after 48 hrs relative to control
[24] = Inhibition of RTK/PI3K/AKT/mTOR signaling in human U87 cells assessed as up regulation of RB binding protein 4, chromatin remodeling factor gene expression at cytotoxic IC50 measured after 48 hrs relative to control
[25] = Inhibition of RTK/PI3K/AKT/mTOR signaling in human U87 cells assessed as down regulation of FAM118B gene expression at cytotoxic IC50 measured after 48 hrs relative to control
[26] = Inhibition of RTK/PI3K/AKT/mTOR signaling in human U87 cells assessed as up regulation of tripartite motif containing 2 gene expression at cytotoxic IC50 measured after 48 hrs relative to control
[27] = Inhibition of RTK/PI3K/AKT/mTOR signaling in human U87 cells assessed as down regulation of CDC6 gene expression at cytotoxic IC50 measured after 48 hrs relative to control
[28] = Inhibition of RTK/PI3K/AKT/mTOR signaling in human U87 cells assessed as down regulation of PPP1R12A gene expression at cytotoxic IC50 measured after 48 hrs relative to control
[29] = Inhibition of RTK/PI3K/AKT/mTOR signaling in human U87 cells assessed as up regulation of RPL14 gene expression at cytotoxic IC50 measured after 48 hrs relative to control
[30] = Inhibition of RTK/PI3K/AKT/mTOR signaling in human U87 cells assessed as up regulation of CLIC4 gene expression at cytotoxic IC50 measured after 48 hrs relative to control
[31] = Inhibition of RTK/PI3K/AKT/mTOR signaling in human U87 cells assessed as up regulation of DLG4 gene expression at cytotoxic IC50 measured after 48 hrs relative to control
[32] = Inhibition of RTK/PI3K/AKT/mTOR signaling in human U87 cells assessed as up regulation of complement C3 gene expression at cytotoxic IC50 measured after 48 hrs relative to control

In the case of `CC(=O)C(=NNc1ccccc1C#N)C(C)=O`, the log2FC [1] is reported as -0.818, the log2FC [2] is reported as 2.41 and the log2FC [3] is reported as -1.22. It also gave a log2FC [4] of -1.29, a log2FC [5] of -0.777 and a log2FC [6] of 1.44. The log2FC [7] was -0.526, the log2FC [8] was 2.92 and the log2FC [9] was 1.69. It also gave a log2FC [10] of 0.443, a log2FC [11] of 0.769 and a log2FC [12] of -8.96. It also gave a log2FC [13] of 1.1, a log2FC [14] of 1.52 and a log2FC [15] of 0.611. It also gave a log2FC [16] of 0.386, a log2FC [17] of 0.745 and a log2FC [18] of 0.647. For the same molecule, the log2FC [19] was -0.46, the log2FC [20] was -1.35 and the log2FC [21] was 0.34. It also gave a log2FC [22] of -0.964, a log2FC [23] of -0.529 and a log2FC [24] of 0.909. The log2FC [25] was -0.857, the log2FC [26] was 0.746 and the log2FC [27] was -1.06. For the same molecule, the log2FC [28] was -0.648, the log2FC [29] was 0.423 and the log2FC [30] was 0.413. It also gave a log2FC [31] of 2.65 and a log2FC [32] of 2.37.

Reference: ChEMBL document CHEMBL4316593 (Eur J Med Chem, 2019)
